Assay results as given in patent US6528481B1, “NG2/HM proteoglycan-binding peptides that home to angiogenic vasculature and related methods” (The Burnam Institute, priority 1999, dated 2003).
These are yes or no findings as the source states them, for the method shown. Some entries that bind do so weakly or less than the wild type. For some assays here: Tags and fused reporters may be left off the sequences shown.

By UniProt entry, the sequences of proteins in these tests, tags left out. Residues count along the entry.
UniProt Q00657, residues 30-1465: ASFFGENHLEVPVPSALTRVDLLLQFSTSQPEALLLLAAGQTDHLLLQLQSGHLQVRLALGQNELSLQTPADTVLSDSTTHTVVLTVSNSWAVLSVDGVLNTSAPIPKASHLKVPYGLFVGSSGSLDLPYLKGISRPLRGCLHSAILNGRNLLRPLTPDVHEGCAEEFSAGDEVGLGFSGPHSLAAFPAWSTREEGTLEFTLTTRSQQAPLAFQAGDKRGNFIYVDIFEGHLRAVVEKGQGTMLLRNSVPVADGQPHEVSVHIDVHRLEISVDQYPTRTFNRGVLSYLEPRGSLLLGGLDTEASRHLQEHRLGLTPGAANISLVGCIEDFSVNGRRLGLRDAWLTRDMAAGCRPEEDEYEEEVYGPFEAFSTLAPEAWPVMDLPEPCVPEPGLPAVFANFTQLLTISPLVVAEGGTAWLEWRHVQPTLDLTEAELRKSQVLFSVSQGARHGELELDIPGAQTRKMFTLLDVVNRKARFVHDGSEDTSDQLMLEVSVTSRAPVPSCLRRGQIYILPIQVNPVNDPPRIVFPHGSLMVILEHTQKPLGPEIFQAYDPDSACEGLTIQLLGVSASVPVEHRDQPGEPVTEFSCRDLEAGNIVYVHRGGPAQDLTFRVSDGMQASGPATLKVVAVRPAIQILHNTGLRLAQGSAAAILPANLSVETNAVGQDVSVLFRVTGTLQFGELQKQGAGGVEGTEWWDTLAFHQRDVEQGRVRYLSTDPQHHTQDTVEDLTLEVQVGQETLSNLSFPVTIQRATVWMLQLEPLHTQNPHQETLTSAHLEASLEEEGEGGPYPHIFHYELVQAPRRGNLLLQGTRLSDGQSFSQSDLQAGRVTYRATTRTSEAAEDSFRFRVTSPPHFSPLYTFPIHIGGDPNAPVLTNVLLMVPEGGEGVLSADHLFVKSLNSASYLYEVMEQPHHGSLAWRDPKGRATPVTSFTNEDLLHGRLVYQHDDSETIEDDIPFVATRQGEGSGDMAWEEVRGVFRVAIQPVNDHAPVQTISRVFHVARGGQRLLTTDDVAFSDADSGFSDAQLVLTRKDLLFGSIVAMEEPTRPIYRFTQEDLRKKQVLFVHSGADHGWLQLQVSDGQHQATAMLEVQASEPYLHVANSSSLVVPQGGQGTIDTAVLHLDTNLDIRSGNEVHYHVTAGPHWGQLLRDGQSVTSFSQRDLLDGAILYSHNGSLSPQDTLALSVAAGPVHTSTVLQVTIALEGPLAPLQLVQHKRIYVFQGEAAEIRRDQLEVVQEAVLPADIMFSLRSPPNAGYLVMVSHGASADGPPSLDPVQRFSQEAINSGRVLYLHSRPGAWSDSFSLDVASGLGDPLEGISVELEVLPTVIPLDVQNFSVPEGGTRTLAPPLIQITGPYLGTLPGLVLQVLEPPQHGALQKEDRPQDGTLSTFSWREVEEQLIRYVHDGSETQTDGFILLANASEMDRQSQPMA

Columns and labels:
[1] = target: recombinant fragment of rat NG2 consisting of the N-terminal two-thirds of the extracellular domain (NG2EC delta 3) (rat) (UniProt Q00657); assay: phage binding to NG2-coated wells competed by increasing soluble NG2 fragment
[2] = target: recombinant fragment of rat NG2 consisting of the N-terminal two-thirds of the extracellular domain (NG2EC delta 3) (rat) (UniProt Q00657); assay: phage panning on NG2-coated wells, round V; table 'Selection of NG2-binding Phage'; number of clones in parentheses
[3] = target: recombinant fragment of rat NG2 consisting of the N-terminal two-thirds of the extracellular domain (NG2EC delta 3) (rat) (UniProt Q00657); assay: phage binding and soluble NG2 competition on NG2-coated wells
[4] = target: recombinant fragment of rat NG2 consisting of the N-terminal two-thirds of the extracellular domain (NG2EC delta 3) (rat) (UniProt Q00657); assay: phage panning on NG2-coated wells, round IV; table 'Selection of NG2-binding Phage'; number of clones in parentheses
[5] = target: recombinant fragment of rat NG2 consisting of the N-terminal two-thirds of the extracellular domain (NG2EC delta 3) (rat) (UniProt Q00657); assay: phage panning on NG2-coated wells
[6] = target: recombinant fragment of rat NG2 consisting of the N-terminal two-thirds of the extracellular domain (NG2EC delta 3) (rat) (UniProt Q00657); assay: purified phage on NG2-coated microtiter wells, bound phage counted as colonies
[7] = target: recombinant fragment of rat NG2 consisting of the N-terminal two-thirds of the extracellular domain (NG2EC delta 3) (rat) (UniProt Q00657); assay: phage panning on NG2-coated wells, round III; table 'Selection of NG2-binding Phage'
[8] = target: recombinant fragment of rat NG2 consisting of the N-terminal two-thirds of the extracellular domain (NG2EC delta 3) (rat) (UniProt Q00657); assay: solid-phase assay: soluble NG2 fragment on GST-fusion-coated wells, anti-NG2 polyclonal and 125I anti-rabbit IgG
[9] = target: recombinant fragment of rat NG2 consisting of the N-terminal two-thirds of the extracellular domain (NG2EC delta 3) (rat) (UniProt Q00657); assay: conclusion of the GST-peptide fusion assays (Example III)
[10] = target: recombinant fragment of rat NG2 consisting of the N-terminal two-thirds of the extracellular domain (NG2EC delta 3) (rat) (UniProt Q00657); assay: competition: soluble GST fusion against …-phage on NG2-coated wells
[11] = target: recombinant fragment of rat NG2 consisting of the N-terminal two-thirds of the extracellular domain (NG2EC delta 3) (rat) (UniProt Q00657); assay: as above; remark: listed apart in the source
[12] = target: recombinant fragment of rat NG2 consisting of the N-terminal two-thirds of the extracellular domain (NG2EC delta 3) (rat) (UniProt Q00657); assay: phage panning on NG2-coated wells, round III; table 'Selection of NG2-binding Phage'; number of clones in parentheses

B1: …-phage (peptide, not shown: large carriers)
peptide: TAASGVRSMH
- binding [1]: binds
- binding [2]: binds
- binding [3]: binds
- binding [4]: binds
- binding [5]: binds
- binding [6]: binds
- binding [7]: binds

B2: phage displaying … (SEQ ID NO: 6) (peptide, not shown: large carriers)
peptide: DLLAVSWLRA
- binding [7]: binds

B3: phage displaying … (SEQ ID NO: 7) (peptide, not shown: large carriers)
peptide: SAERGVVAMS
- binding [7]: binds

B4: phage displaying … (SEQ ID NO: 8) (peptide, not shown: large carriers)
peptide: AIHSELMWVS
- binding [7]: binds

B5: phage displaying … (SEQ ID NO: 9) (peptide, not shown: large carriers)
peptide: FWTERAGWAY
- binding [7]: binds

B6: phage displaying … (SEQ ID NO: 10) (peptide, not shown: large carriers)
peptide: MVWSKGPLFL
- binding [7]: binds

B7: phage displaying … (SEQ ID NO: 11) (peptide, not shown: large carriers)
peptide: AGTRMSWEVL
- binding [7]: binds

B8: phage displaying … (SEQ ID NO: 12) (peptide, not shown: large carriers)
peptide: VSRSSRWGSI
- binding [7]: binds

B9: phage displaying … (SEQ ID NO: 13) (peptide, not shown: large carriers)
peptide: DAHVLVPRTP
- binding [7]: binds

B10: phage displaying … (SEQ ID NO: 14) (peptide, not shown: large carriers)
peptide: AQGIVLQLAL
- binding [7]: binds

B11: phage displaying … (SEQ ID NO: 15) (peptide, not shown: large carriers)
peptide: LSPLLSPATA
- binding [7]: binds

B12: …-phage (peptide, not shown: large carriers)
peptide: LTLRWVGLMS
- binding [1]: binds
- binding [2]: binds
- binding [3]: binds
- binding [4]: binds
- binding [5]: binds
- binding [6]: binds
- binding [7]: binds

B13: GST-… fusion protein (peptide, not shown: a dimerising Fc or GST)
chain: TAASGVRSMH
- binding [8]: binds
- binding [9]: binds
- binding [10]: binds
- binding [11]: binds

B14: GST-… fusion protein (peptide, not shown: a dimerising Fc or GST)
chain: LTLRWVGLMS
- binding [8]: binds
- binding [9]: binds
- binding [10]: binds
- binding [11]: binds

B15: phage displaying … (SEQ ID NO: 3) (peptide, not shown: large carriers)
peptide: GGGTRAGMKY
- binding [12]: binds

B16: phage displaying … (SEQ ID NO: 4) (peptide, not shown: large carriers)
peptide: WGKIEDPLRA
- binding [7]: binds

B17: phage displaying … (SEQ ID NO: 5) (peptide, not shown: large carriers)
peptide: AGQTLTASGD
- binding [7]: binds
